The list shows a part of the results.
How the values were obtained:
Experiment in all cases: log2 fold change, soluble protein after heating vs DMSO (PISA); higher = thermal stabilisation; K562 cells, 10 uM, 30 min; active = over 0.2 and 3.5 SD of the protein, either way, in both replicates (recomputed)
[1] = compound: CC[C@@H]1C(=O)N(C)c2cnc(Nc3ccc(C(=O)NC4CCN(C)CC4)cc3OC)nc2N1C1CCCC1
Method in brief: (§1)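 K562 cells at 2×10^6 cells/mL were given 10 μM compound for 30 min. Aliquots then went through 3 min of heating across 48°C-58°C, were pooled, and were extracted in PBS with 0.5% NP-40 at 4°C, and the supernatant after 21,000xg for 90 min was quantified by TMTpro 16plex LC-MS/MS with channel sums equalised. Thermal stability relative to control samples, from duplicates, is given as log2 fold change.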

Chains of the proteins cited; added tags and fusions are not shown. Lines headed by an entry give the natural chain unless they say otherwise; changes in a name come on top.
UniProt Q9H4H8: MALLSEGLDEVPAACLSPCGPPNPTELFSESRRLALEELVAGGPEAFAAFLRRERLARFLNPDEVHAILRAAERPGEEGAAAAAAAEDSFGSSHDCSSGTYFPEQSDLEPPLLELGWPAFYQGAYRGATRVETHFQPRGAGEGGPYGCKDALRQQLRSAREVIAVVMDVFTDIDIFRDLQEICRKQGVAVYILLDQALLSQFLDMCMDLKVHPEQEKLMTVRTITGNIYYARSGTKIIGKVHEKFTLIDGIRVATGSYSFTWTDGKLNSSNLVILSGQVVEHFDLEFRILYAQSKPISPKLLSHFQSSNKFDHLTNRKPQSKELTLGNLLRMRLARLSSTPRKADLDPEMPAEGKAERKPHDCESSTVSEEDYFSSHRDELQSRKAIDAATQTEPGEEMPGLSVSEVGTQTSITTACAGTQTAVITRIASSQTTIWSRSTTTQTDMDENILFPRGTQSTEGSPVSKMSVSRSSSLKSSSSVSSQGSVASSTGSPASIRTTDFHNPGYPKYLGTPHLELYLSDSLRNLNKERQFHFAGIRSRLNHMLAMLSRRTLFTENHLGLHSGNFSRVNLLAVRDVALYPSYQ
UniProt O43427: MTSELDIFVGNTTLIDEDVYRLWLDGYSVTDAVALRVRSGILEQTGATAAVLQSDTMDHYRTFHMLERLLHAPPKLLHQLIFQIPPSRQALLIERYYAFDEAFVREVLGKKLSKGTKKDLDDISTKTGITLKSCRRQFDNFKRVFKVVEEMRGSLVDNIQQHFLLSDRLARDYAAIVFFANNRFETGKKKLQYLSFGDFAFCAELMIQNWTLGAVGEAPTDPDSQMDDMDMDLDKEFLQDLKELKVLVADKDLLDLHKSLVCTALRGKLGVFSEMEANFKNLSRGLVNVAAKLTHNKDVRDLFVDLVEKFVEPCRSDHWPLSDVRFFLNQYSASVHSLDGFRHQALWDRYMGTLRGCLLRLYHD
UniProt Q92562: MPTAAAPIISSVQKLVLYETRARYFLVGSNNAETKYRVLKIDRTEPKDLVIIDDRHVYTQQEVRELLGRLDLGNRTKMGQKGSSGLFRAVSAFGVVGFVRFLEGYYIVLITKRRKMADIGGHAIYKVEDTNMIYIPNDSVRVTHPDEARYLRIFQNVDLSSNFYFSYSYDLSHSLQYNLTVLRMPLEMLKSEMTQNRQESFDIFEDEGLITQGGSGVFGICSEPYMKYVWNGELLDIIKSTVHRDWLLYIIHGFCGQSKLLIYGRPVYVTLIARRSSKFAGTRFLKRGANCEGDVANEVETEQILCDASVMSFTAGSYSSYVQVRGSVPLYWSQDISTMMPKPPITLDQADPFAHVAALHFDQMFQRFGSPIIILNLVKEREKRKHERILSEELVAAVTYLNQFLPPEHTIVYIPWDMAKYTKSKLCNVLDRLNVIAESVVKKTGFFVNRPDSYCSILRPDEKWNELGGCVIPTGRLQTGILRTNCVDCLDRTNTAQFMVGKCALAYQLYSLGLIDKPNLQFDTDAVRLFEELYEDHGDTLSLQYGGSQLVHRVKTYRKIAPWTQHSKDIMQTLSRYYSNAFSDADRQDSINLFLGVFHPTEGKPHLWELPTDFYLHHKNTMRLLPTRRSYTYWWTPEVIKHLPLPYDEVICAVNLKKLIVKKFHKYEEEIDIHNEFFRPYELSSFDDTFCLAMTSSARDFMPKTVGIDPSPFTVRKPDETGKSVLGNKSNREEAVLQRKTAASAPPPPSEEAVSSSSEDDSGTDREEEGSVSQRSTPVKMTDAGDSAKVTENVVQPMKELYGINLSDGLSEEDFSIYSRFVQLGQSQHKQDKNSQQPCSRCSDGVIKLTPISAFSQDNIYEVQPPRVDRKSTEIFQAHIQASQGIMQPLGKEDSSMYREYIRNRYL
UniProt A2RU67: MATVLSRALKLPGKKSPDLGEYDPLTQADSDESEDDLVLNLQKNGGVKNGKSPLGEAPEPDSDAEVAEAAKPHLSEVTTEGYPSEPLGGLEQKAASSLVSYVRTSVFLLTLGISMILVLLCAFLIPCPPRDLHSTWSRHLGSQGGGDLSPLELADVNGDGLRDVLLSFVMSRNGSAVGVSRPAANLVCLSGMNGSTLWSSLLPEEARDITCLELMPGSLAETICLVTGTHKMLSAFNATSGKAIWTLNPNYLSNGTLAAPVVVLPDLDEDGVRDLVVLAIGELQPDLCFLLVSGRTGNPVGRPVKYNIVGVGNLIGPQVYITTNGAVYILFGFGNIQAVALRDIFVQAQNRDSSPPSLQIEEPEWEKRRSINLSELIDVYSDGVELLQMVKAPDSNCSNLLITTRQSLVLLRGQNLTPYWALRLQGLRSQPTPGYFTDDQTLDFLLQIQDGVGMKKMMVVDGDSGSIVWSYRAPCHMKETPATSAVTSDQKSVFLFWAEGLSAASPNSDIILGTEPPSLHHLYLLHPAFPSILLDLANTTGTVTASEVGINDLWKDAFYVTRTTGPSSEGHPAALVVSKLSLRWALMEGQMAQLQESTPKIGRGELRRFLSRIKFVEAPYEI
UniProt O95466, whole entry, looked up: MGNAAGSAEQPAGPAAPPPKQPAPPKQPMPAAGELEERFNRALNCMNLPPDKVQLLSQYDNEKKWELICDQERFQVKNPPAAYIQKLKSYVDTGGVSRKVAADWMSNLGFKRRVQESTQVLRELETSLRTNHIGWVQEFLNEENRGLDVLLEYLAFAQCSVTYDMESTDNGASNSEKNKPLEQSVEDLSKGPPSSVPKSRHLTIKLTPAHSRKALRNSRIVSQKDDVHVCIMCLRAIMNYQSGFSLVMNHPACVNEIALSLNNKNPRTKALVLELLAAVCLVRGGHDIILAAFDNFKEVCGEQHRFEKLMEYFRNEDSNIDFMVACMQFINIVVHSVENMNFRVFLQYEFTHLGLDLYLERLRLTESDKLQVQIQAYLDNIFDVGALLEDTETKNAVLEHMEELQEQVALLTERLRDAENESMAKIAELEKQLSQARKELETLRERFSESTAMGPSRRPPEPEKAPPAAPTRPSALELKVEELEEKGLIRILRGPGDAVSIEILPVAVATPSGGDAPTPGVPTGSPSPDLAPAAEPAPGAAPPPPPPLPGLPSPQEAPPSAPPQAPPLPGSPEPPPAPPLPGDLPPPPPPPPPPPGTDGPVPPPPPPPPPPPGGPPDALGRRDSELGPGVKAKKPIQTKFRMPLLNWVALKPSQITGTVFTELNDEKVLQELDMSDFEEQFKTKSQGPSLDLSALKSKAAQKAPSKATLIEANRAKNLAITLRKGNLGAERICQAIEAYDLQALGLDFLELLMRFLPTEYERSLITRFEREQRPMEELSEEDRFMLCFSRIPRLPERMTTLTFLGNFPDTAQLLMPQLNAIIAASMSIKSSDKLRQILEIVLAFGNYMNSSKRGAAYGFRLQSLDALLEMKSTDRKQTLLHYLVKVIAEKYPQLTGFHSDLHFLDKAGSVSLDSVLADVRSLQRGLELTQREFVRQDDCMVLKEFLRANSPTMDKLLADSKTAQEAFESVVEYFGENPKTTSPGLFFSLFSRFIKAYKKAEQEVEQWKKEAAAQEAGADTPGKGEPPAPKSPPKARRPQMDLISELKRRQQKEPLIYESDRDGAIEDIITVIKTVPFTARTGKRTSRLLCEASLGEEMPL
UniProt Q86XK2: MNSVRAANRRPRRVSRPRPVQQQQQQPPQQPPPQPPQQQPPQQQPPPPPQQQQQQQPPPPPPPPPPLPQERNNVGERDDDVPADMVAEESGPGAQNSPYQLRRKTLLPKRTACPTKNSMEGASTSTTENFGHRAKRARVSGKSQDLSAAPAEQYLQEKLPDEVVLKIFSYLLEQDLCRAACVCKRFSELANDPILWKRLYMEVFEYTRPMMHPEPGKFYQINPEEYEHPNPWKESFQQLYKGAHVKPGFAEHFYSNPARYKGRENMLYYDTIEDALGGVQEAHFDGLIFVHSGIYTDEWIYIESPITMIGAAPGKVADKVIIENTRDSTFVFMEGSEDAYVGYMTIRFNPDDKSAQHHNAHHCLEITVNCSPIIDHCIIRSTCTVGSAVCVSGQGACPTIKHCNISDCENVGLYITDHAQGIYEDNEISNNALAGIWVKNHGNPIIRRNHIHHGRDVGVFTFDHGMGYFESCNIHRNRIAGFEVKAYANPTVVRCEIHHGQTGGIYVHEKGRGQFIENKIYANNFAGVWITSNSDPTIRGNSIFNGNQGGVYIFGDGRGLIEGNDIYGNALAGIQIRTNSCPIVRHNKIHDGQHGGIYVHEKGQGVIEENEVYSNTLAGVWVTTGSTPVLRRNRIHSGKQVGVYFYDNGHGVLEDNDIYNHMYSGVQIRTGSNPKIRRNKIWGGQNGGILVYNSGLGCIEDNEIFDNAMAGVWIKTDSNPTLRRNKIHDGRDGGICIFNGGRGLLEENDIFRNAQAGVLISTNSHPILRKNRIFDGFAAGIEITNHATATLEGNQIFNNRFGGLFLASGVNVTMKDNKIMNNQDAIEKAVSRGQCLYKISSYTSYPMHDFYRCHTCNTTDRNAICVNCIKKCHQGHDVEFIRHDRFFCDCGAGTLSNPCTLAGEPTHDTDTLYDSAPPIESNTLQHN
UniProt Q8TF40: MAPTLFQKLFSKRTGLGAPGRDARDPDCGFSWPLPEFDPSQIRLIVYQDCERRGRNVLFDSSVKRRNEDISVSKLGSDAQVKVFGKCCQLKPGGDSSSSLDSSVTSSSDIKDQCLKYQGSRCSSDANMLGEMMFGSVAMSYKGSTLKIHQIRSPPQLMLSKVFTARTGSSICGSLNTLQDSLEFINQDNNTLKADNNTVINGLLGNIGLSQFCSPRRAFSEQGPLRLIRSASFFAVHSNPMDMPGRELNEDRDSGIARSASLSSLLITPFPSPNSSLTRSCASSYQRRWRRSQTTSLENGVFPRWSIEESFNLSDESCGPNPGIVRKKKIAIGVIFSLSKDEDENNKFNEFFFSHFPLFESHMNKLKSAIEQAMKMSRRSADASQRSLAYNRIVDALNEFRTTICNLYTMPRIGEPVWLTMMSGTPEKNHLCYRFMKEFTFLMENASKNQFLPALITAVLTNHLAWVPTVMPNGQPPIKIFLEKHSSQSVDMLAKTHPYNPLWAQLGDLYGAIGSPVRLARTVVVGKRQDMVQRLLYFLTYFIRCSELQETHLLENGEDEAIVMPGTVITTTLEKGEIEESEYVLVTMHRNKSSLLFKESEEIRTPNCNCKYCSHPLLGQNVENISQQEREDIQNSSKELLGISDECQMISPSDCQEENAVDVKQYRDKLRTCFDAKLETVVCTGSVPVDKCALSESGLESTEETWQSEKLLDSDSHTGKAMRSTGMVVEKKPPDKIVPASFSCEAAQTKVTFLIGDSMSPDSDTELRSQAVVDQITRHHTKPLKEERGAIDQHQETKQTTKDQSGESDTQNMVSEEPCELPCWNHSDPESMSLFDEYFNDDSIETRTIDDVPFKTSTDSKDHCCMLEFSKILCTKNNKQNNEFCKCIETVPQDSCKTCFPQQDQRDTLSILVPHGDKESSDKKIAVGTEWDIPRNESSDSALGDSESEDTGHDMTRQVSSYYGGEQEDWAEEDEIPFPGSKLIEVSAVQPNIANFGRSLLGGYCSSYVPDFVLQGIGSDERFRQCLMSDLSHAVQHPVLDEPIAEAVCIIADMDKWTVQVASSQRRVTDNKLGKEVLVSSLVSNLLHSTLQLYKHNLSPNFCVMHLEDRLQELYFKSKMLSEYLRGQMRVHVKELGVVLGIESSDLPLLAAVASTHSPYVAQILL
UniProt Q9UKT8: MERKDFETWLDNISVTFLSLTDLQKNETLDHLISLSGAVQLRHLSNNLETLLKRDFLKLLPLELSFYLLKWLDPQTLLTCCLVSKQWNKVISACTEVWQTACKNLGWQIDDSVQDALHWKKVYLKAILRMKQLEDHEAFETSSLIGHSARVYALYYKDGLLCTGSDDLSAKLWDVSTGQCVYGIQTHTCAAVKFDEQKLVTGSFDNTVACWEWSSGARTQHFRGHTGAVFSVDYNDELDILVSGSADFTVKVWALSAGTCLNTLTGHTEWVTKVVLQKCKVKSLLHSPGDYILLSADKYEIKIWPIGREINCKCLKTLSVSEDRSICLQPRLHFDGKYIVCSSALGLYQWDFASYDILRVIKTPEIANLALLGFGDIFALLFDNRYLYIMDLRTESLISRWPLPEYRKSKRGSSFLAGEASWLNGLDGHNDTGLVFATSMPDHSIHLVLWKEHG
UniProt Q9NW38: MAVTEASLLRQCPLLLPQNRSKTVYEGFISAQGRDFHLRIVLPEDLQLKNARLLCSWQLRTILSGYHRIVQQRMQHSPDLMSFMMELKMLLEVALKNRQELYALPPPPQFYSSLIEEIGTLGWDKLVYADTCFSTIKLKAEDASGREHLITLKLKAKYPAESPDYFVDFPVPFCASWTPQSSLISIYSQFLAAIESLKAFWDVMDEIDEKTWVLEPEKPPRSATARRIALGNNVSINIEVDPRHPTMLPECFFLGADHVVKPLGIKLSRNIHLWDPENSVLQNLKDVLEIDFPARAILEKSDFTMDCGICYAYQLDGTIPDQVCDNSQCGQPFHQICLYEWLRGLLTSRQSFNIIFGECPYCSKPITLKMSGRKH

volasertib = compound: CC[C@@H]1C(=O)N(C)c2cnc(Nc3ccc(C(=O)N[C@H]4CC[C@H](N5CCN(CC6CC6)CC5)CC4)cc3OC)nc2N1C(C)C [volasertib]
Method in brief: as §1

[2] = compound: CC[C@H](C)N1C=C(C2=C(C=C(C=C21)C3=CN=C(C=C3)N4CCNCC4)C(=O)NCC5=C(C=C(NC5=O)C)C)C
Method in brief: as §1

epoxomicin = compound: CC[C@H](C)[C@@H](C(=O)N[C@@H]([C@@H](C)O)C(=O)N[C@@H](CC(C)C)C(=O)[C@]1(CO1)C)NC(=O)[C@H]([C@@H](C)CC)N(C)C(=O)C [epoxomicin]
Method in brief: as §1

[3] = compound: CCn1cc(-c2ccnc3[nH]c(-c4cccc(CN(C)C)c4)cc23)c(-c2ccc(NC(=O)N(C)C)cc2)n1
Method in brief: as §1

[4] = compound: CN(C)CC(=O)Nc1ccc2[nH]c(=O)c3ccccc3c2c1
Method in brief: as §1

[5] = compound: CN1C2=C(C3=C1C(=O)N(N=C3)CC4=CC(=CC=C4)N)SC(=C2)S(=O)C
Method in brief: as §1

[6] = compound: CN1CCC(CNc2ccc3ncc(-c4cccc(OC(F)(F)F)c4)n3n2)CC1
Method in brief: as §1

saracatinib = compound: CN1CCN(CCOc2cc(OC3CCOCC3)c3c(Nc4c(Cl)ccc5c4OCO5)ncnc3c2)CC1 [saracatinib]
Method in brief: as §1

sotrastaurin = compound: CN1CCN(c2nc(C3=C(c4c[nH]c5ccccc45)C(=O)NC3=O)c3ccccc3n2)CC1 [sotrastaurin]
Method in brief: as §1

Tubastatin A = compound: CN1CCc2c(c3ccccc3n2Cc2ccc(C(=O)NO)cc2)C1 [Tubastatin A]
Method in brief: as §1

[7] = compound: CNC(=O)C1=CC=CC=C1NC2=NC(=NC=C2Cl)NC3=C(C=C(C=C3)N4CCOCC4)OC
Method in brief: as §1

defactinib = compound: CNC(=O)c1ccc(Nc2ncc(C(F)(F)F)c(NCc3nccnc3N(C)S(C)(=O)=O)n2)cc1 [defactinib]
Method in brief: as §1

rucaparib = compound: CNCc1ccc(-c2[nH]c3cc(F)cc4c3c2CCNC4=O)cc1 [rucaparib]
Method in brief: as §1

[8] = compound: CNc1nc(-c2ccc3c(N)n[nH]c3c2)cc(N2C[C@@H](C(=O)NC3CCCCC3)CC[C@H]2C)n1
Method in brief: as §1

encorafenib = compound: COC(=O)N[C@@H](C)CNc1nccc(-c2cn(C(C)C)nc2-c2cc(Cl)cc(NS(C)(=O)=O)c2F)n1 [encorafenib]
Method in brief: as §1

[9] = compound: COC(=O)[C@H](CCSC)NC(=O)C1=C(C=C(C=C1)NC[C@H](CS)N)C2=CC=CC=C2
Method in brief: as §1

[10] = compound: CCn1c(C(=O)N(C2CC2)C2CC2)cc2c3c(ncn3C)c(Nc3cc(C)n(C)n3)nc21
Method in brief: as §1

rosiglitazone = compound: CN(CCOC1=CC=C(C=C1)C[C@H]2C(=O)NC(=O)S2)C3=CC=CC=N3 (racemic) [rosiglitazone]
Method in brief: as §1

alvocidib = compound: CN1CC[C@H](c2c(O)cc(O)c3c(=O)cc(-c4ccccc4Cl)oc23)[C@H](O)C1 [alvocidib]
Method in brief: as §1

Measured: log2 fold change

FANCI (UniProt Q9NVI1)
active: [1] -0.277
inactive: volasertib -0.159 | [2] 0.127 | epoxomicin -0.077 | [3] -0.093 | [4] 0.072 | [5] -0.013 | [6] -0.188 | saracatinib -0.022 | sotrastaurin -0.099 | Tubastatin A -0.103 | [7] -0.111 | defactinib -0.179 | rucaparib 0.041 | [8] -0.002 | encorafenib 0.003 | [9] -0.02

FITM2 (UniProt Q8N6M3)
inactive: [1] 0.022 | [2] -0.071 | [10] 0.066 | rosiglitazone -0.022 | [7] 0.009 | rucaparib 0.029 | encorafenib 0.009

FNTA (UniProt P49354)
active: volasertib 0.362 | [9] 0.561
inactive: [1] 0.123 | [2] 0.006 | epoxomicin 0.019 | [3] -0.074 | [4] 0.012 | [5] -0.03 | [6] 0.015 | saracatinib 0.084 | sotrastaurin 0.141 | Tubastatin A -0.068 | [7] -0.028 | defactinib 0.019 | rucaparib -0.243 | [8] -0.016 | encorafenib -0.239

FAM83D (UniProt Q9H4H8)
inactive: [1] -0.097 | volasertib -0.139 | [2] 0 | epoxomicin -0.082 | [3] -0.115 | [4] 0.085 | [5] 0.006 | [6] 0.042 | saracatinib -0.014 | sotrastaurin -0.055 | Tubastatin A -0.002 | [7] -0.004 | defactinib -0.074 | rucaparib 0.078 | [8] 0.03 | encorafenib 0.071 | [9] -0.023

FAT4 (UniProt Q6V0I7)
inactive: [1] 0.033 | [2] -0.047 | [3] -0.011 | [4] -0.182 | [6] -0.04 | sotrastaurin 0.128 | Tubastatin A -0.037 | defactinib 0.06 | rucaparib -0.154 | encorafenib -0.04 | [9] 0.123

FBXL8 (UniProt Q96CD0)
inactive: [1] 0.014 | epoxomicin -0.067 | [10] -0.046 | rosiglitazone -0.136 | sotrastaurin -0.418 | alvocidib -0.023 | Tubastatin A 0.273 | [7] -0.072 | rucaparib -0.176 | encorafenib 0.062

FIBP (UniProt O43427)
active: rucaparib 0.395
inactive: [1] 0.164 | volasertib -0.093 | epoxomicin -0.023 | [3] -0.023 | [4] -0.043 | [5] -0.072 | [6] -0.229 | saracatinib -0.074 | sotrastaurin -0.05 | Tubastatin A 0.07 | [7] 0.002 | defactinib -0.046 | [8] -0.085 | encorafenib 0.039 | [9] 0.004

FBXO44 (UniProt Q9H4M3)
inactive: [2] -0.182 | rosiglitazone 0.044 | sotrastaurin -0.086 | alvocidib -0.034

FNBP1 (UniProt Q96RU3)
inactive: [5] 0.01 | saracatinib 0.027 | Tubastatin A 0.073 | [8] -0.007

FIG4 (UniProt Q92562)
inactive: volasertib -0.303 | [10] -0.046 | [7] 0.05

FBXO2 (UniProt Q9UK22)
inactive: [3] -0.155 | [6] 0.05

FLCN (UniProt Q8NFG4)
inactive: [2] 0.069 | epoxomicin -0.031 | [10] -0.082 | [3] 0.076 | [4] 0.033 | [5] 0.021 | [6] 0.115 | saracatinib -0.133 | sotrastaurin -0.032 | alvocidib -0.081 | Tubastatin A 0.074 | [7] -0.035 | defactinib -0.022 | [8] 0.084 | [9] 0.081

FGG (UniProt P02679)
inactive: volasertib -0.042 | [3] 0.035 | [6] 0.137

FGGY isoform 3 (UniProt Q96C11)
inactive: volasertib 0.081 | epoxomicin -0.021 | [10] -0.044 | [3] 0.042 | [4] 0.095 | rosiglitazone 0.12 | [5] 0.027 | [6] -0.006 | saracatinib -0.15 | alvocidib 0.141 | Tubastatin A 0.011 | [7] 0.002 | defactinib -0.026 | [8] -0.168 | [9] -0.017

FBF1 isoform 6 (UniProt Q8TES7)
inactive: [2] -0.016 | [5] -0.025 | saracatinib 0.114 | [8] 0.135

Two neighbouring records out of the list so far:
FLCN (UniProt Q8NFG4)
inactive: [2] 0.069 | epoxomicin -0.031 | [10] -0.082 | [3] 0.076 | [4] 0.033 | [5] 0.021 | [6] 0.115 | saracatinib -0.133 | sotrastaurin -0.032 | alvocidib -0.081 | Tubastatin A 0.074 | [7] -0.035 | defactinib -0.022 | [8] 0.084 | [9] 0.081

FGG (UniProt P02679)
inactive: volasertib -0.042 | [3] 0.035 | [6] 0.137

(continued)

FAM234B (UniProt A2RU67)
inactive: volasertib 0.032 | [10] 0.077 | [4] -0.141 | rosiglitazone -0.18 | sotrastaurin 0.02 | alvocidib -0.215 | Tubastatin A 0.316 | [7] 0.08 | defactinib -0.106 | [9] -0.038

FBXW11 (UniProt Q9UKB1)
inactive: volasertib 0.103 | [10] -0.003 | [3] -0.029 | [4] -0.075 | [5] 0.072 | [6] -0.094 | saracatinib 0.153 | alvocidib 0.156 | Tubastatin A 0.012 | [7] -0.073 | defactinib 0.147 | [8] 0.008 | [9] -0.014

FMNL1 isoform 3 (UniProt O95466)
inactive: epoxomicin -0.128 | rosiglitazone -0.284 | sotrastaurin -0.443

FBXO11 isoform 5 (UniProt Q86XK2)
inactive: volasertib 0.324 | epoxomicin 0.098 | [10] 0.059 | sotrastaurin -0.017 | Tubastatin A 0.036 | [7] -0.089

FNIP1 (UniProt Q8TF40)
inactive: volasertib -0.016 | epoxomicin -0.064 | [10] -0.134 | [3] -0.226 | rosiglitazone -0.028 | [5] -0.16 | [6] 0.142 | saracatinib -0.07 | alvocidib 0.104 | Tubastatin A 0.005 | [7] 0.034 | [8] 0.071

FBXO33 (UniProt Q7Z6M2)
inactive: epoxomicin -0.081 | rosiglitazone -0.256

FGFR1OP2 (UniProt Q9NVK5)
inactive: [2] -0.025 | epoxomicin 0.067 | [10] 0 | [3] -0.047 | [4] 0.079 | rosiglitazone 0.075 | [5] -0.001 | [6] 0.063 | saracatinib 0.029 | alvocidib -0.019 | Tubastatin A 0.011 | [7] -0.02 | defactinib -0.127 | [8] 0.002 | [9] -0.041

FGF17 (UniProt O60258)
inactive: [3] 1.55 | [6] 0.237

FMR1NB (UniProt Q8N0W7)
inactive: epoxomicin 0.203

FAT1 (UniProt Q14517)
inactive: volasertib 0.009 | [2] -0.048 | epoxomicin -0.05 | [3] -0.018 | [4] 0.07 | [5] -0.11 | [6] 0.082 | saracatinib -0.085 | sotrastaurin -0.072 | Tubastatin A -0.031 | [7] -0.041 | defactinib -0.05 | [8] -0.094 | [9] -0.087

FBXW2 (UniProt Q9UKT8)
inactive: volasertib -0.19 | epoxomicin 0.081 | [10] 0.097 | [4] -0.047 | rosiglitazone -0.056 | [5] 0.247 | saracatinib -0.281 | sotrastaurin 0.047 | alvocidib -0.067 | Tubastatin A 0.001 | [7] 0.021 | defactinib -0.084 | [8] 0.111 | [9] 0.128

FERMT2 isoform 3 (UniProt Q96AC1)
inactive: volasertib -0.04 | [2] -0.006 | epoxomicin -0.076 | [10] 0.159 | [3] 0.337 | rosiglitazone -0.106 | [5] -0.033 | [6] -0.001 | saracatinib -0.032 | sotrastaurin 0.021 | alvocidib -0.027 | Tubastatin A 0.062 | [7] 0.119 | [8] 0.067

FBRS (UniProt J3KNZ9)
inactive: volasertib -0.39 | [2] -0.046 | epoxomicin 0.196 | [3] 0.173 | [4] 0.159 | [6] -0.044 | sotrastaurin -0.118 | alvocidib 0.226 | defactinib -0.305 | [9] 0.035

FHAD1 isoform 3 (UniProt B1AJZ9)
inactive: volasertib -0.126 | [3] -0.043 | [4] -0.082 | rosiglitazone -0.136 | [5] 0.505 | [6] -0.065 | saracatinib 0.305 | alvocidib 0.21 | Tubastatin A -0.12 | defactinib 0.086 | [8] 0.073 | [9] 0.229

FEZ2 isoform 2 (UniProt Q9UHY8)
inactive: volasertib 0.007 | [2] -0.019 | [3] 0.002 | [4] 0.041 | rosiglitazone 0.227 | [5] -0.007 | [6] 0.043 | saracatinib 0.095 | sotrastaurin -0.168 | alvocidib -0.045 | defactinib -0.074 | [8] -0.253 | [9] 0.055

FANCL isoform 2 (UniProt Q9NW38)
inactive: [4] 0.096 | alvocidib -0.144 | defactinib -0.258 | [9] -0.03

FNBP1L (UniProt Q5T0N5)
inactive: volasertib 0.062 | [2] -0.168 | [10] -0.133 | [3] -0.032 | [4] -0.182 | rosiglitazone -0.17 | [5] 0.051 | [6] 0.04 | saracatinib 0.091 | sotrastaurin -0.011 | alvocidib -0.009 | Tubastatin A 0.235 | [7] 0.022 | defactinib -0.129 | [8] -0.009 | [9] 0.135
